PubChem BioAssay AID504786, Drosophila RNAi Screening Center, 2011

Assay: 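Knock-downs reducing HIF reporter induction by the iron chelator DFO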 (primary screen)
Cell system: Drosophila S2 cells with a stable HIF luciferase reporter
Reagent: long dsRNA against Drosophila genes, about 0.2 µg dsRNA per well of a 384-well plate
Time to read-out: three days of knock-down, then 20 h of DFO before reading
Conditions: desferrioxamine (DFO) at 100 µM, an iron chelator that mimics hypoxia, for 20 h
Read-out: 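Firefly luciferase driven by the mouse ldh-a hypoxia-response element, measured after 20 h of 100 µM DFO; z-scores per plate, higher means more signal lost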
Reading the numbers: z-score: higher = stronger loss of HIF reporter signal
In all, the deposit lists about 21,000 reagents; below is an unselected part of those that have a named target and a result. 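Primary screen; positive scores mean lost reporter signal, so the sign may be inverted from the usual convention.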 The numbers tell different reagents against one gene apart. A plus sign joins genes that one reagent is predicted to hit.

| target | reagent no. | z-score, replicate 1 | z-score, replicate 2 |
| --- | --- | --- | --- |
| JIL-1 | 1 | -0.2 | -0.8 |
| CG7149 | 1 | -0.2 | -0.4 |
| CG15642 | 1 | -0.3 | -0.3 |
| Hsc70-3 | 1 | -0.4 | 1 |
| CG3618 | 1 | -0.1 | -0.2 |
| Unc-115b + p24-2 + Unc-115a | 1 | -0.2 | -0.4 |
| msn | 1 | -0.4 | -0.4 |
| msn | 2 | -0.4 | -0.4 |
| CG14073 | 1 | -0.3 | -0.2 |
| Tssk | 1 | -1 | -0.7 |
| CG10887 | 1 | -0.1 | -0.4 |
| CG9231 | 1 | -0.3 | -0.4 |
| CG8851 | 1 | -0.1 | -0.3 |
| Lst8 | 1 | -0.3 | -0.4 |
| Vsp37A | 1 | -0.2 | -0.5 |
| CG4743 | 1 | -0.2 | -0.4 |
| ranshi | 1 | -0.3 | -0.4 |
| Prx3 | 1 | -0.3 | -0.3 |
| ttm2 | 1 | -0.3 | -0.3 |
| CG14071 | 1 | -0.2 | -0.4 |
| pnut | 1 | -0.4 | -0.8 |
| ND-13A | 1 | -0.1 | -0.7 |
| CG12831 | 1 | -0.2 | -0.1 |
| Cpr47Eg | 1 | -0.1 | -0.2 |
| CR31822 | 1 | -0.5 | -0.4 |
| CG1688 | 1 | -0.2 | -0.4 |
| Naa35 | 1 | -0.2 | -0.1 |
| Elba2 | 1 | -0.3 | -0.2 |
| CG2246 | 1 | -0.1 | 0 |
| RpL10 | 1 | 7.1 | 6.2 |
| Trf4-2 | 1 | -0.1 | -0.8 |
| Top2 | 1 | -0.1 | -0.2 |
| snsl | 1 | -0.3 | 0.3 |
| Efa6 | 1 | 0.9 | 0.1 |
| Efa6 | 2 | 0 | 0.5 |
| Efa6 | 3 | -0.1 | 1.1 |
| adp | 1 | -0.3 | -0.4 |
| CG8736 | 1 | -0.3 | -0.4 |
| Cph | 1 | -0.3 | -0.3 |
| Cph | 2 | -0.3 | -0.9 |
| RpL21 | 1 | 9.3 | 6.6 |
| CG9396 | 1 | -0.3 | -0.5 |
| CG11034 | 1 | -0.2 | -0.3 |
| CG11034 | 2 | -0.4 | -0.1 |
| z | 1 | 2.2 | 1.2 |
| eIF3l | 1 | -0.5 | -1 |
| Tmem43 | 1 | -0.2 | 0.8 |
| CG14589 | 1 | -0.1 | -0.3 |
| CG11756 | 1 | -0.4 | 0.5 |
| Hem | 1 | 0.1 | 0.7 |
| SmF | 1 | 4.8 | 5 |
| Nep1 | 1 | -0.3 | -0.5 |
| Nep1 | 2 | 2.7 | 1.3 |
| CG31806 | 1 | -0.1 | -0.3 |
| MED1 | 1 | -0.1 | 0.3 |
| CG15456 | 1 | -0.2 | -0.4 |
| CG31642 | 1 | -0.2 | -0.5 |
| senju | 1 | -0.3 | -0.3 |
| dmpd | 1 | -0.4 | -0.5 |
| pod1 | 1 | -0.1 | 0.6 |
| Nrd1 | 1 | -0.3 | -0.6 |
| CG8788 | 1 | -0.3 | -0.4 |
| CG16758 | 1 | -0.1 | 0.3 |
| CG16758 | 2 | -0.3 | 0.1 |
| CG4629 | 1 | -0.2 | -0.4 |
| CG5973 | 1 | -0.3 | -0.4 |
| arm | 1 | -0.1 | -0.8 |
| CG4045 | 1 | -0.3 | -0.3 |
| CG8916 | 1 | -0.4 | -0.4 |
| CG30114 | 1 | 0.5 | 1.3 |
| omd | 1 | 0.7 | 0.4 |
| Sap130 | 1 | -0.4 | -0.3 |
| btv | 1 | 0.1 | -0.1 |
| btv | 2 | -0.2 | -0.8 |
| Corin | 1 | -0.4 | -0.5 |
| blp | 1 | 0.1 | 0 |
| Ncc69 | 1 | -0.3 | -0.4 |
| Ncc69 | 2 | 0 | 0.2 |
| Ser12 | 1 | -0.2 | -0.5 |
| CG15357 | 1 | 0.2 | -0.1 |
| Iyd | 1 | -0.1 | -0.2 |
| Iyd | 2 | -0.3 | 0.1 |
| Takl1 | 1 | -0.2 | 0 |
